This note sets out measurements from patent publication US6924313B1.

Chains of the proteins cited; added tags and fusions are not shown. Residues count along the entry.
UniProt P11597, 18-493 limits assumed: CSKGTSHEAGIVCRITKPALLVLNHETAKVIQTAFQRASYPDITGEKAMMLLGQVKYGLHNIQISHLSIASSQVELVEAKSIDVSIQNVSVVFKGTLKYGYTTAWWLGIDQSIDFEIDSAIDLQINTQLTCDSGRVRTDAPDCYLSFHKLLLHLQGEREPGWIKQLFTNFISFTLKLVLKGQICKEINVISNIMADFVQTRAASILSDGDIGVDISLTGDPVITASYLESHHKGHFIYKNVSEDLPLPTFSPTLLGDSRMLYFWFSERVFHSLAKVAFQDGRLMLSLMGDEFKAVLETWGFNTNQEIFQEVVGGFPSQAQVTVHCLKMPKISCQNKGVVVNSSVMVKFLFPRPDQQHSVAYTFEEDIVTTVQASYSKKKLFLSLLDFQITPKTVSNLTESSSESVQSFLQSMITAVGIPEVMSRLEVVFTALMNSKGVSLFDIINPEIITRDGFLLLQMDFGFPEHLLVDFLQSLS

Certain results were filed several times, with different values. They are shown here; other results are not. There may be further records. The values listed for one entry seem to repeat one measurement on other runs, samples or individuals.

The target of the assay is CETP (Homo sapiens, UniProt P11597). The assay can be described thus: CETP activity in vitro ([3H]CE transfer from HDL to LDL). As to conditions: read-out: CEPT Activity Assay IC50.

Broadly, the IC50 is the concentration needed to halve the response being measured. For `OC(CN(Cc1cccc(C(F)(F)F)c1)c1cccc(F)c1)C(F)(F)F` (stereo not shown), the IC50 is 14.2 µM and 37.5 µM.
